# Source: PubChem BioAssay AID504834 (National Center for Advancing Translational Sciences (NCATS), 2011)
# Screen size: about 320,000 compounds; about 22,000 (6.9%) were called active. This list was built around the results that the source calls inconclusive (neither active nor inactive); the mix of calls is not that of the screen. Calls follow the shape of the dose curve; as a rule, active = well fitted inhibition curve with a large enough effect; inconclusive = small, poorly fitted or top-dose-only effect, or another doubt; inactive = no such curve, though single readings can be large or run the other way. Potencies beside an inconclusive call are fits to weak or partial responses and may not hold up.
# Test: Primary qHTS for delayed death inhibitors of the malarial parasite plastid, 96 hour incubation
# Details: P. falciparum luciferase reporter growth; series mostly up to 28.7 µM
# Method in brief: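 Luminescence readout: decreased luciferase signal marks inhibited growth of reporter-expressing P. falciparum in infected red cells (2% hematocrit, 0.05% parasitemia final), exposed to compound two generations (96 h, 37 C, 5% CO2).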
# Potency is read from the fitted curve at half-maximal effect.
row,Structure (SMILES),Potency
1,O=C(CCc1c[nH]c2ccccc12)NCc1cccc(Cl)c1,inactive
2,CC(C)=CCc1c(O)ccc2c1OC(c1ccc(O)c(O)c1)CC2=O (stereo not given),"inconclusive: 10.4 µM [inhibitor, single point]"
3,Cn1nc(C(=O)N2CCN(c3ccc(F)cc3)CC2)c2c1-c1ccccc1S(=O)(=O)C2,"inconclusive: 18.5 µM [inhibitor, partial curve, poor fit]"
4,CCCn1c(N)c(C(=O)CSc2nnc(-c3ccoc3C)n2C)c(=O)n(C)c1=O,"inconclusive: 8.28 µM [inhibitor, partial curve]"
5,CCn1c(=O)c2sccc2n2c(CCCC(=O)NC3CCN(Cc4ccccc4)CC3)nnc12,active: 13.1 µM
6,CCOc1ccccc1N1CCN(C(=O)c2ccccc2OCc2c(C)noc2C)CC1,"inconclusive: 0.0928 µM [inhibitor, full curve, poor fit]"
7,COCC(C)NC(=O)CCSc1nc(-c2ccc(OC)cc2)cc(C(F)(F)F)n1 (stereo not given),active: 9.28 µM
8,CC(C)Cc1csc(NC(=O)c2ccc(Br)cc2)c1C(=O)O,inactive
9,COC(=O)c1ccc(S(=O)(=O)NCc2ccccc2)n1C,inactive
10,O=C(CSc1nccc(-c2cccs2)n1)Nc1ccc(F)c(Cl)c1,"inconclusive: 10.4 µM [inhibitor, single point]"
11,COc1ccc(OC)c(NC(=O)CSc2nnc(Cc3cccn3C)n2-c2ccc(F)cc2)c1,inactive
12,C/C(=C\c1ccccc1)CN1CCC(C(=O)N2CCCCC2)CC1,inactive
13,O=C(NCCCN1CCCC1)Nc1ccc(F)cc1,inactive
14,CCNc1cc(N2CCCC2)ccc1[N+](=O)[O-],"inconclusive: 18.5 µM [inhibitor, single point]"
15,CN1CCN(C(=S)C(=O)NCc2ccccc2)CC1,"inconclusive: 1.47 µM [inhibitor, partial curve, poor fit]"
16,O=C1CSc2ccc(C(=O)O)cc2N1,active: 11.7 µM
17,O=C(CCS(=O)(=O)c1ccc(Cl)cc1)Nc1ccc(F)cc1,active: 10.4 µM
18,CCOc1cccc2cc(C(=O)NCc3ccccc3)c(=N)oc12,"inconclusive: 4.15 µM [inhibitor, partial curve, poor fit]"
19,COc1cc(NC(=O)Cc2cccs2)c(C(=O)O)cc1OC,inactive
20,[N-]=[N+]=NCCN1CCN(CCc2ccccc2)CCC1=O,"inconclusive: 18.5 µM [inhibitor, single point]"
21,Cc1ccccc1NC(=O)N1CCC(C(=O)c2ccc(F)cc2)CC1,"inconclusive: 8.28 µM [inhibitor, partial curve, poor fit]"
22,Cc1ccc(C(=O)NNC(=O)c2ccccc2OCc2c(C)noc2C)cc1,inactive
23,CC1CCCCN1CCNC(=O)c1ccc2c(c1)N(Cc1ccccc1F)C(=O)c1ccccc1S2=O (stereo not given),active: 5.86 µM
24,CC(=O)Nc1ccc(NCC(O)COc2ccccc2)cc1 (stereo not given),"inconclusive: 4.15 µM [inhibitor, partial curve]"

row,Structure (SMILES),Potency
1,Cc1cccc(C(=O)NCC(=O)N2CCN(S(=O)(=O)c3ccccc3)CC2)c1,inactive
2,O=C(NCc1ccco1)C(c1cccnc1)N(C(=O)Cn1nnc2ccccc21)c1ccc(F)cc1 (stereo not given),"inconclusive: 13.1 µM [inhibitor, partial curve]"
3,O=C(Oc1ccc(Cl)c2cccnc12)c1cccc([N+](=O)[O-])c1,inactive
4,Cc1cc(C(=O)N/N=C/C=C/c2ccc([N+](=O)[O-])cc2)n[nH]1,"inconclusive: 13.1 µM [inhibitor, partial curve, poor fit]"
5,COC(=O)c1ccc(CNC(=O)c2cc(COc3cncc(Cl)c3)on2)cc1,"inconclusive: 14.7 µM [inhibitor, single point]"
6,COc1ccc(N2C(=O)/C(=C/c3ccc([N+](=O)[O-])cc3)C=C2c2ccccc2)cc1,active: 13.1 µM
7,COc1ccc(C(C)(C)C)cc1NC(=O)c1cncc(Br)c1,"inconclusive: 13.1 µM [inhibitor, single point]"
8,CC1CCCCC1NC(=O)CN1c2cccc3cccc(c23)S1(=O)=O (stereo not given),"inconclusive: 2.33 µM [inhibitor, full curve, poor fit]"
9,CCOC(=O)/C(N=Nc1c(C)n(C)n(-c2ccccc2)c1=O)=C(\C)O,inactive
10,CCOC(=O)C(C)Oc1cccc2c(=O)n(CC(=O)NCCc3ccc(OC)c(OC)c3)ccc12 (stereo not given),"inconclusive: 13.1 µM [inhibitor, partial curve, poor fit]"
11,O=C(NNC(=O)C1CC(c2cccs2)=NO1)Nc1ccc(Cl)cc1 (stereo not given),inactive
12,C/C(=N\NC(=O)CCC(=O)Nc1ccccc1)c1cccs1,"inconclusive: 11.7 µM [inhibitor, single point]"
13,CCCCn1c(SCC(=O)NC(C)CC)nc2ccc(N3CCOCC3)cc2c1=O (stereo not given),"inconclusive: 3.29 µM [inhibitor, partial curve, poor fit]"
14,Cn1c(CSCC(=O)Nc2ccccc2)nnc1SCc1ccccc1,"inconclusive: 18.5 µM [inhibitor, partial curve, poor fit]"
15,O=C(CSCc1ccco1)c1cccs1,inactive
16,COC(=O)N(C)CCCC1(C)C(=O)N(C)c2ccc(O)cc21 (stereo not given),"inconclusive: 5.22 µM [inhibitor, partial curve, poor fit]"
17,Cc1c(C(=O)N(C)CCC#N)oc2ccc(S(=O)(=O)N3CCOCC3)cc12,"inconclusive: 16.5 µM [inhibitor, partial curve, poor fit]"
18,COc1ccc2nc(/C=N/NC(=O)CCCCCNC(=O)OC(C)(C)C)ccc2c1,"inconclusive: 0.329 µM [inhibitor, full curve, poor fit]"
19,CC1(C)Cc2nc3sc(C(=O)NCCCO)c(N)c3cc2CS1,inactive
20,Nc1ccccc1C(O)(Cc1ccccc1)c1ccccc1 (stereo not given),"inconclusive: 18.5 µM [inhibitor, single point]"
21,COc1ccc(-c2nc(-c3ccc(Br)o3)no2)cc1OC,"inconclusive: 9.28 µM [inhibitor, partial curve, poor fit]"
22,COc1cc(/C=C/c2c([N+](=O)[O-])c(=O)n(C)c(=O)n2C)cc(OC)c1OC,"inconclusive: 10.4 µM [inhibitor, single point]"
23,N#Cc1nc(-c2ccccc2)oc1N1CCN(C(=O)c2ccco2)CC1,"inconclusive: 0.0059 µM [inhibitor, full curve, poor fit]"
24,COc1cc(OC)cc(C(=O)NNC(=O)c2ccc3ccccc3n2)c1,"inconclusive: 18.5 µM [inhibitor, single point]"

row,Structure (SMILES),Potency
1,COc1cc2c(cc1OC)CN(Cc1ccccc1)CC2,"inconclusive: 0.0828 µM [inhibitor, full curve, poor fit]"
2,Cc1cccc(NC(=O)CN(C)C(=O)C2CCCC2)c1C,inactive
3,O=C(c1ccc(CS(=O)Cc2ccc(Cl)cc2)o1)N1CCN(c2ccccc2F)CC1 (stereo not given),"inconclusive: 11.7 µM [inhibitor, single point]"
4,COc1ccccc1Cn1c(=S)[nH]c2cc(C(=O)NCc3cccnc3)ccc2c1=O,active: 8.28 µM
5,COc1cc(OC)cc(-c2c(-c3cccs3)c3cc(-c4ccc(OC)c(F)c4)ccc3n2C)c1,"inconclusive: 1.85 µM [inhibitor, partial curve, poor fit]"
6,COc1ccc(C2N=C(N)N=C(N)N2c2ccccc2)cc1OC (stereo not given),active: 2.62 µM
7,C=CCc1cccc(/C=N/NC(=O)CCCNc2ccc(C)cc2)c1O,"inconclusive: 0.828 µM [inhibitor, full curve, poor fit]"
8,Cc1ccccc1-c1nnc(-c2ccccc2)o1,"inconclusive: 4.15 µM [inhibitor, partial curve, poor fit]"
9,CSc1cccc(NC(=S)N(C(C)C)C(C)c2ccccn2)c1 (stereo not given),"inconclusive: 18.5 µM [inhibitor, single point]"
10,O=C(CC1NCCc2ccccc21)Nc1ccc(Cl)cc1 (stereo not given),"inconclusive: 11.7 µM [inhibitor, single point]"
11,C=CCNc1nc(NC(C)(C)CO)nc(OC)n1,"inconclusive: 13.1 µM [inhibitor, partial curve, poor fit]"
12,Cc1cccc(C)c1NC(=O)CN(C)C(=O)CCc1nc2sc3c(c2c(=O)[nH]1)CCCC3,"inconclusive: 11.7 µM [inhibitor, single point]"
13,O=C(CSc1nc2ccccc2s1)Nc1ccc(N2CCOCC2)c(Cl)c1,"inconclusive: 11.7 µM [inhibitor, single point]"
14,CCOc1cccc(OCCOCCn2cnc3ccccc3c2=O)c1,"inconclusive: 18.5 µM [inhibitor, single point]"
15,Cc1cccc(NS(=O)(=O)c2cc(C(=O)N3CCCCCC3)ccc2C)c1,"inconclusive: 18.5 µM [inhibitor, single point]"
16,CC[C@@]12C(=O)N(c3cccc(Cl)c3)C(=O)N1[C@H](c1cccc(C)c1)[C@@H]1C(=O)N(Cc3ccccc3)C(=O)[C@@H]12,active: 5.22 µM
17,Fc1ccc(NC(=S)Nc2cccnc2)c(F)c1F,inactive
18,CCCC(=O)Nc1nc(C)c(C(C)=O)s1,inactive
19,O=C1c2ccccc2C(=O)N1CCCc1nc2ccccc2c(=O)n1CCCn1ccnc1,active: 1.85 µM
20,O=S(=O)(Nc1cccc(-c2cn3cccnc3n2)c1)c1ccccc1,"inconclusive: 10.4 µM [inhibitor, partial curve, poor fit]"
21,c1cncc(-c2nnc(-c3cccs3)o2)c1,"inconclusive: 10.4 µM [inhibitor, single point]"
22,COc1cc(C(c2c(C)[nH][nH]c2=O)c2c(C)[nH][nH]c2=O)cc(Cl)c1O,"inconclusive: 18.5 µM [inhibitor, single point]"

# In the list so far, these contain a Cl atom.
row,Structure (SMILES),Potency
1,O=C(CCc1c[nH]c2ccccc12)NCc1cccc(Cl)c1,inactive
10,O=C(CSc1nccc(-c2cccs2)n1)Nc1ccc(F)c(Cl)c1,"inconclusive: 10.4 µM [inhibitor, single point]"
17,O=C(CCS(=O)(=O)c1ccc(Cl)cc1)Nc1ccc(F)cc1,active: 10.4 µM
3,O=C(Oc1ccc(Cl)c2cccnc12)c1cccc([N+](=O)[O-])c1,inactive
5,COC(=O)c1ccc(CNC(=O)c2cc(COc3cncc(Cl)c3)on2)cc1,"inconclusive: 14.7 µM [inhibitor, single point]"
11,O=C(NNC(=O)C1CC(c2cccs2)=NO1)Nc1ccc(Cl)cc1 (stereo not given),inactive
3,O=C(c1ccc(CS(=O)Cc2ccc(Cl)cc2)o1)N1CCN(c2ccccc2F)CC1 (stereo not given),"inconclusive: 11.7 µM [inhibitor, single point]"
10,O=C(CC1NCCc2ccccc21)Nc1ccc(Cl)cc1 (stereo not given),"inconclusive: 11.7 µM [inhibitor, single point]"
13,O=C(CSc1nc2ccccc2s1)Nc1ccc(N2CCOCC2)c(Cl)c1,"inconclusive: 11.7 µM [inhibitor, single point]"
16,CC[C@@]12C(=O)N(c3cccc(Cl)c3)C(=O)N1[C@H](c1cccc(C)c1)[C@@H]1C(=O)N(Cc3ccccc3)C(=O)[C@@H]12,active: 5.22 µM
22,COc1cc(C(c2c(C)[nH][nH]c2=O)c2c(C)[nH][nH]c2=O)cc(Cl)c1O,"inconclusive: 18.5 µM [inhibitor, single point]"

# Three entries from above, arranged by heavy-atom count, ascending.
row,Structure (SMILES),Potency
21,c1cncc(-c2nnc(-c3cccs3)o2)c1,"inconclusive: 10.4 µM [inhibitor, single point]"
15,Cc1cccc(NS(=O)(=O)c2cc(C(=O)N3CCCCCC3)ccc2C)c1,"inconclusive: 18.5 µM [inhibitor, single point]"
12,Cc1cccc(C)c1NC(=O)CN(C)C(=O)CCc1nc2sc3c(c2c(=O)[nH]1)CCCC3,"inconclusive: 11.7 µM [inhibitor, single point]"
